Assay results from US20230102488A1, “COMPOUNDS AND THEIR USE FOR THE TREATMENT OF ALPHA1-ANTITRYPSIN DEFICIENCY” (Z Factor Limited, priority 2019, published 2023).
Some entries share one result that the patent states for a list of compounds.

Chains of the proteins cited; added tags and fusions are not shown. Residues count along the entry.
UniProt P01009, 25-418 E366K: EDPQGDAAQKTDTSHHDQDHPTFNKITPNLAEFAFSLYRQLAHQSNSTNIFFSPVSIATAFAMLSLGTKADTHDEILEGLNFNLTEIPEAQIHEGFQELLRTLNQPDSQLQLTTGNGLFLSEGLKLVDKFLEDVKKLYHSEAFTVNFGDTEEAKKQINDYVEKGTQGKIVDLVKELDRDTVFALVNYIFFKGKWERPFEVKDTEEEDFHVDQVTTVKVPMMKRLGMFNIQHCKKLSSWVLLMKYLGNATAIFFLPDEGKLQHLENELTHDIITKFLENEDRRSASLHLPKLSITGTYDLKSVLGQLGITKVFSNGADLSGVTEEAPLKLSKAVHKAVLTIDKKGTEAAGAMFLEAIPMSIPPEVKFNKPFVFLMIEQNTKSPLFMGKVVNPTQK

Target: T1, Z A1AT (Homo sapiens, UniProt P01009, E366K)
T1 construct: expressed in transfected cells; host or cells: HEK-Z cells (human embryonic kidney cell line)
Experiment: A1AT cell secretion assay using HEK-Z cells (A1AT ELISA of supernatants)
Type: cell-based
Settings: 48 h, secreted human A1AT in supernatant by ELISA
Experimental: HEK-Z cells, a human embryonic kidney cell line stably transfected with the human Z A1AT gene, were plated into 96 well plates (3.0×10^5 cells/ml with 200 μl of media/well) overnight at 37° C. in a humidified atmosphere containing 5% CO2. Following incubation cells were washed with 200 μl serum-free media three times and media was replaced with treatments in quadruplicate using serum free media containing either vehicle, 10 μM suberanilohydroxamic acid (SAHA) or a compound of the invention ([…]) for 48 h in a 37° C. incubator in a final volume of 200 μl. At the end of the incubation step the supernatants were removed from the wells, centrifuged at 1000×g at 4° C. for 10 min and were assayed for human A1AT levels by ELISA (Human Serpin A1/α1-antitrypsin duo set ELISA, R& D Systems, DY1268) per manufacturer's instructions.
Briefly, a 96 well plate was coated with human A1AT capture antibody overnight at room temperature (1:180 dilution from stock, 100 μl final volume/well). The capture antibody was then removed and wells washed three times with 300 μl wash buffer (0.05% Tween 20 in PBS) and then 200 μl reagent diluent ([…]) was incubated in each well for 1 h at room temperature. Diluted samples, standards (125, 250, 500, 1000, 2000, 4000 and 8000 pg/ml A1AT) or blanks were then added to each well in duplicate and the plates were covered with a plate sealer and left at room temperature for 2 h. At the end of the sample incubation step, samples were removed and all wells washed as previously and 100 μl detection antibody (1:180 dilution from stock) was added to each well and incubated for a further 2 h at room temperature. Following incubation with detection antibody, supernatant was removed and wells were washed as previously and 100 μl streptavidin-HRP solution (1:200 dilution from stock) was added to each well for 20 min in the dark. After which, 50 μl stop solution (2M H2SO4) was added and optical density (OD) of each well was read at 450 nm with 570 nm blank subtracted from each well using a microplate reader. A 4 parameter logistic curve was constructed using GraphPad Prism 7 and A1AT concentrations were determined in each sample by interpolation from a standard curve and multiplying by the appropriate dilution factor.

Row | SMILES | Median A1AT % increase over vehicle at 300 nM
1 | CN(Cc1ccccc1)C(=O)c1ccc(Cn2cnccc2=O)cc1 [Example 8, N-benzyl-N-methyl-4-((6-oxopyrimidin-1(6H)-yl)methyl)benzamide] | increase secretion of Z A1AT
2 | O=C(NCc1ccc(F)cc1)c1ccc(Cn2cnccc2=O)cc1 [Example 13, N-(4-fluorobenzyl)-4-((6-oxopyrimidin-1(6H)-yl)methyl)benzamide] | increase secretion of Z A1AT
3 | O=C(c1ccc(Cn2cnccc2=O)cc1)N1CCCC1 [Example 2, 3-(4-(Pyrrolidine-1-carbonyl)benzyl)pyrimidin-4(3H)-one] | increase secretion of Z A1AT
4 | CN(CC(F)(F)F)C(=O)c1ccc(Cn2cnccc2=O)cc1 [Example 9, N-methyl-4-((6-oxopyrimidin-1(6H)-yl)methyl)-N-(2,2,2-trifluoroethyl)benzamide] | increase secretion of Z A1AT
5 | O=C(c1ccc(Cn2cnccc2=O)cc1)N1CCOCC1 [Example 3, 3-(4-(Morpholine-4-carbonyl)benzyl)pyrimidin-4(3H)-one] | increase secretion of Z A1AT
6 | O=C(NCC(F)(F)F)c1ccc(Cn2cnccc2=O)cc1 [Example 14, 4-((6-oxopyrimidin-1(6H)-yl)methyl)-N-(2,2,2-trifluoroethyl)benzamide] | increase secretion of Z A1AT
7 | CN1CCN(C(=O)c2ccc(Cn3cnccc3=O)cc2)CC1 [Example 4, 3-(4-(4-Methylpiperazine-1-carbonyl)benzyl)pyrimidin-4(3H)-one] | increase secretion of Z A1AT
8 | NC(=O)c1ccc(Cn2cnccc2=O)cc1 [Example 10, 4-((6-oxopyrimidin-1(6H)-yl)methyl)benzamide] | increase secretion of Z A1AT
9 | CCN(CC)C(=O)c1ccc(Cn2cnccc2=O)cc1 [Example 11, N,N-diethyl-4-((6-oxopyrimidin-1(6H)-yl)methyl)benzamide] | increase secretion of Z A1AT
10 | CNC(=O)c1ccc(Cn2cnc3ccc(Cl)cc3c2=O)cc1 [Example 6, 4-((6-chloro-4-oxoquinazolin-3(4H)-yl)methyl)-N-methylbenzamide] | increase secretion of Z A1AT
11 | Cc1ncn(Cc2ccc(C(=O)N(C)C)cc2)c(=O)c1C [Example 18, 4-((4,5-dimethyl-6-oxopyrimidin-1(6H)-yl)methyl)-N,N-dimethylbenzamide] | increase secretion of Z A1AT
12 | CC(C)NC(=O)c1ccc(Cn2cnccc2=O)cc1 [Example 12, N-isopropyl-4-((6-oxopyrimidin-1(6H)-yl)methyl)benzamide] | increase secretion of Z A1AT
13 | CC(C)N(C)C(=O)c1ccc(Cn2cnccc2=O)cc1 [Example 7, N-isopropyl-N-methyl-4-((6-oxopyrimidin-1(6H)-yl)methyl)benzamide] | increase secretion of Z A1AT
14 | CCN(C)C(=O)c1ccc(Cn2cnccc2=O)cc1 [Example 1, N-Ethyl-N-methyl-4-((6-oxopyrimidin-1(6H)-yl)methyl)benzamide] | increase secretion of Z A1AT
